Experimental data reported in patent US20060188579A1, “Novel process” (priority 2003, published 2006).
For at least one compound, name, drawing or mass did not settle the structure.

Columns and labels:
Assay type in all cases: physicochemical
[1] = Particle sizing, Example 7: influence of amplitude and cycle of ultrasonic energy; details: sonocrystallised 15 °C, 15 minutes, 6 ml sat. methanol solution, 16 ml water
[2] = Particle sizing, Example 2: full precipitation with excess water, no sonication; details: fully precipitated (excess water)
[3] = Particle sizing, Example 6: influence of time on sonocrystallisation; details: sonocrystallised 15 °C, 6 ml sat. methanol solution, 16 ml water, amplitude 20%
[4] = Particle sizing, Example 4: sonocrystallisation, volume of precipitant (water) altered; details: sonocrystallised 15 °C, 15 ml sat. methanol solution, amplitude 100%
[5] = Particle sizing by laser light scattering, Example 1: precipitation at varying temperatures with no sonication; details: water added until turbid, sat. methanol solution
[6] = Particle sizing, Example 8: influence of water content on sonocrystallisation of a hydrophilic drug; details: amplitude 100%
[7] = Particle sizing, Example 3: hydrophobic vs hydrophilic drug precipitated without sonication; details: crystallised from a saturated methanol solution at 10° C., 15 minutes
[8] = Particle sizing, Example 9: influence of freeze-drying on sonocrystallised samples; details: sonocrystallised 15 °C, 15 ml sat. methanol solution, 30 ml water, amplitude 100%, cycle 0.75
[9] = sonocrystallised 15 °C from sat. methanol solution, cycle 0.75, precipitant Acetonitrile, water content in drug solution 11.11%
[10] = sonocrystallised 15 °C from sat. methanol solution, cycle 0.75, precipitant Acetonitrile, water content in drug solution 20.00%
[11] = sonocrystallised 15 °C from sat. methanol solution, cycle 0.75, precipitant Acetonitrile, water content in drug solution 33.33%
[12] = sonocrystallised 15 °C from sat. methanol solution, cycle 0.75, precipitant Diethyl ether, water content in drug solution 5%
[13] = sonocrystallised 15 °C from sat. methanol solution, cycle 0.75, precipitant Diethyl ether, water content in drug solution 10%
[14] = sonocrystallised 15 °C from sat. methanol solution, cycle 0.75, precipitant Diethyl ether, water content in drug solution 20%
[15] = sonocrystallised 15 °C from sat. methanol solution, cycle 0.75, precipitant Diethyl ether, water content in drug solution 30%
[16] = sonocrystallised 15 °C from sat. methanol solution, cycle 0.75, precipitant Diethyl ether, water content in drug solution 40%
[17] = sonocrystallised from sat. methanol solution, cycle 0.75, precipitant Acetonitrile, water content in drug solution 20.00%, * temperature: 5° C.

CCCC1O[C@@H]2C[C@H]3[C@@H]4CCC5=CC(=O)C=C[C@]5(C)[C@H]4[C@@H](O)C[C@]3(C)[C@]2(C(=O)CO)O1 (stereo partly drawn) [budesonide]
Diameters dv(0.1) ([1]; cycle 0.25, amplitude 20): 2.03 μm
Diameters dv(0.5) ([1]; cycle 0.25, amplitude 20): 3.51 μm
Diameters dv(0.9) ([1]; cycle 0.25, amplitude 20): 6.38 μm
Diameters dv(0.1) ([1]; cycle 0.25, amplitude 40): 1.89 μm
Diameters dv(0.5) ([1]; cycle 0.25, amplitude 40): 3.25 μm
Diameters dv(0.9) ([1]; cycle 0.25, amplitude 40): 5.68 μm
Diameters dv(0.1) ([1]; cycle 0.25, amplitude 60): 1.77 μm
Diameters dv(0.5) ([1]; cycle 0.25, amplitude 60): 3.03 μm
Diameters dv(0.9) ([1]; cycle 0.25, amplitude 60): 5.26 μm
Diameters dv(0.1) ([1]; cycle 0.25, amplitude 80): 1.68 μm
Diameters dv(0.5) ([1]; cycle 0.25, amplitude 80): 2.78 μm
Diameters dv(0.9) ([1]; cycle 0.25, amplitude 80): 4.87 μm
Diameters dv(0.1) ([1]; cycle 0.25, amplitude 100): 1.67 μm
Diameters dv(0.5) ([1]; cycle 0.25, amplitude 100): 2.79 μm
Diameters dv(0.9) ([1]; cycle 0.25, amplitude 100): 4.80 μm
Diameters dv(0.1) ([1]; cycle 0.50, amplitude 20): 2.10 μm
Diameters dv(0.5) ([1]; cycle 0.50, amplitude 20): 3.42 μm
Diameters dv(0.9) ([1]; cycle 0.50, amplitude 20): 5.61 μm
Diameters dv(0.1) ([1]; cycle 0.50, amplitude 100): 1.42 μm
Diameters dv(0.5) ([1]; cycle 0.50, amplitude 100): 2.37 μm
Diameters dv(0.9) ([1]; cycle 0.50, amplitude 100): 4.08 μm
Diameters dv(0.1) ([1]; cycle 0.75, amplitude 20): 1.94 μm
Diameters dv(0.5) ([1]; cycle 0.75, amplitude 20): 3.11 μm
Diameters dv(0.9) ([1]; cycle 0.75, amplitude 20): 5.03 μm
Diameters dv(0.1) ([1]; cycle 0.75, amplitude 100): 1.45 μm
Diameters dv(0.5) ([1]; cycle 0.75, amplitude 100): 2.46 μm
Diameters dv(0.9) ([1]; cycle 0.75, amplitude 100): 4.32 μm
Diameters dv(0.1) ([1]; cycle 1.00, amplitude 20): 1.74 μm
Diameters dv(0.5) ([1]; cycle 1.00, amplitude 20): 2.92 μm
Diameters dv(0.9) ([1]; cycle 1.00, amplitude 20): 4.98 μm
Diameters dv(0.1) ([1]; cycle 1.00, amplitude 100): 1.88 μm
Diameters dv(0.5) ([1]; cycle 1.00, amplitude 100): 3.18 μm
Diameters dv(0.9) ([1]; cycle 1.00, amplitude 100): 5.41 μm
Diameters dv(0.1) ([2]; 'Volume of water (ml)' 5): 5.75 μm
Diameters dv(0.5) ([2]; 'Volume of water (ml)' 5): 12.01 μm
Diameters dv(0.9) ([2]; 'Volume of water (ml)' 5): 23.26 μm
Diameters dv(0.1) ([2]; 'Volume of water (ml)' 10): 5.91 μm
Diameters dv(0.5) ([2]; 'Volume of water (ml)' 10): 14.76 μm
Diameters dv(0.9) ([2]; 'Volume of water (ml)' 10): 31.37 μm
Diameters dv(0.1) ([2]; 'Volume of water (ml)' 15): 5.94 μm
Diameters dv(0.5) ([2]; 'Volume of water (ml)' 15): 13.76 μm
Diameters dv(0.9) ([2]; 'Volume of water (ml)' 15): 28.83 μm
Diameters dv(0.1) ([2]; 'Volume of water (ml)' 20): 6.69 μm
Diameters dv(0.5) ([2]; 'Volume of water (ml)' 20): 16.66 μm
Diameters dv(0.9) ([2]; 'Volume of water (ml)' 20): 36.81 μm
Diameters dv(0.1) ([2]; 'Volume of water (ml)' 25): 7.61 μm
Diameters dv(0.5) ([2]; 'Volume of water (ml)' 25): 17.82 μm
Diameters dv(0.9) ([2]; 'Volume of water (ml)' 25): 36.45 μm
Diameters dv(0.1) ([3]; cycle 0.25, time 5 mins): 2.36 μm
Diameters dv(0.5) ([3]; cycle 0.25, time 5 mins): 4.34 μm
Diameters dv(0.9) ([3]; cycle 0.25, time 5 mins): 8.21 μm
Diameters dv(0.1) ([3]; cycle 0.25, time 10 mins): 2.16 μm
Diameters dv(0.5) ([3]; cycle 0.25, time 10 mins): 3.62 μm
Diameters dv(0.9) ([3]; cycle 0.25, time 10 mins): 6.08 μm
Diameters dv(0.1) ([3]; cycle 0.25, time 15 mins): 2.03 μm
Diameters dv(0.5) ([3]; cycle 0.25, time 15 mins): 3.51 μm
Diameters dv(0.9) ([3]; cycle 0.25, time 15 mins): 6.38 μm
Diameters dv(0.1) ([3]; cycle 0.25, time 20 mins): 1.97 μm
Diameters dv(0.5) ([3]; cycle 0.25, time 20 mins): 3.29 μm
Diameters dv(0.9) ([3]; cycle 0.25, time 20 mins): 5.54 μm
Diameters dv(0.1) ([3]; cycle 0.25, time 25 mins): 1.97 μm
Diameters dv(0.5) ([3]; cycle 0.25, time 25 mins): 3.36 μm
Diameters dv(0.9) ([3]; cycle 0.25, time 25 mins): 5.76 μm
Diameters dv(0.1) ([3]; cycle 0.25, time 30 mins): 2.03 μm
Diameters dv(0.5) ([3]; cycle 0.25, time 30 mins): 3.35 μm
Diameters dv(0.9) ([3]; cycle 0.25, time 30 mins): 5.57 μm
Diameters dv(0.1) ([3]; cycle 0.25, time 60 mins): 1.78 μm
Diameters dv(0.5) ([3]; cycle 0.25, time 60 mins): 2.93 μm
Diameters dv(0.9) ([3]; cycle 0.25, time 60 mins): 4.89 μm
Diameters dv(0.1) ([4]; cycle 0.75, water 5 ml): 3.32 μm
Diameters dv(0.5) ([4]; cycle 0.75, water 5 ml): 8.63 μm
Diameters dv(0.9) ([4]; cycle 0.75, water 5 ml): 17.4 μm
Diameters dv(0.1) ([4]; cycle 0.75, water 7.5 ml): 2.48 μm
Diameters dv(0.5) ([4]; cycle 0.75, water 7.5 ml): 6.77 μm
Diameters dv(0.9) ([4]; cycle 0.75, water 7.5 ml): 15.3 μm
Diameters dv(0.1) ([4]; cycle 0.75, water 10 ml): 2.72 μm
Diameters dv(0.5) ([4]; cycle 0.75, water 10 ml): 7.02 μm
Diameters dv(0.9) ([4]; cycle 0.75, water 10 ml): 14.4 μm
Diameters dv(0.1) ([4]; cycle 0.75, water 12.5 ml): 2.27 μm
Diameters dv(0.5) ([4]; cycle 0.75, water 12.5 ml): 5.89 μm
Diameters dv(0.9) ([4]; cycle 0.75, water 12.5 ml): 12.1 μm
Diameters dv(0.1) ([4]; cycle 0.75, water 15 ml): 2.10 μm
Diameters dv(0.5) ([4]; cycle 0.75, water 15 ml): 5.44 μm
Diameters dv(0.9) ([4]; cycle 0.75, water 15 ml): 11.2 μm
Diameters dv(0.1) ([4]; cycle 0.75, water 20 ml): 2.29 μm
Diameters dv(0.5) ([4]; cycle 0.75, water 20 ml): 5.82 μm
Diameters dv(0.9) ([4]; cycle 0.75, water 20 ml): 11.8 μm
Diameters dv(0.1) ([4]; cycle 0.75, water 25 ml): 2.15 μm
Diameters dv(0.5) ([4]; cycle 0.75, water 25 ml): 5.01 μm
Diameters dv(0.9) ([4]; cycle 0.75, water 25 ml): 10.6 μm
Diameters dv(0.1) ([4]; cycle 0.75, water 30 ml): 1.70 μm
Diameters dv(0.5) ([4]; cycle 0.75, water 30 ml): 2.80 μm
Diameters dv(0.9) ([4]; cycle 0.75, water 30 ml): 4.71 μm
Diameters dv(0.1) ([4]; cycle 0.75, water 40 ml): 1.63 μm
Diameters dv(0.5) ([4]; cycle 0.75, water 40 ml): 2.60 μm
Diameters dv(0.9) ([4]; cycle 0.75, water 40 ml): 4.23 μm
Diameters dv(0.1) ([4]; cycle 0.75, water 45 ml): 1.72 μm
Diameters dv(0.5) ([4]; cycle 0.75, water 45 ml): 2.73 μm
Diameters dv(0.9) ([4]; cycle 0.75, water 45 ml): 4.38 μm
Diameters dv(0.1) ([5]; 5 °C): 11.4 μm
Diameters dv(0.5) ([5]; 5 °C): 21.6 μm
Diameters dv(0.9) ([5]; 5 °C): 38.2 μm
Diameters dv(0.1) ([5]; 10 °C): 13.0 μm
Diameters dv(0.5) ([5]; 10 °C): 24.8 μm
Diameters dv(0.9) ([5]; 10 °C): 43.7 μm
Diameters dv(0.1) ([5]; 15 °C): 8.5 μm
Diameters dv(0.5) ([5]; 15 °C): 18.8 μm
Diameters dv(0.9) ([5]; 15 °C): 35.3 μm
Diameters dv(0.1) ([5]; 20 °C): 10.2 μm
Diameters dv(0.5) ([5]; 20 °C): 21.4 μm
Diameters dv(0.9) ([5]; 20 °C): 39.6 μm
Diameters dv(0.1) ([5]; 25 °C): 11.2 μm
Diameters dv(0.5) ([5]; 25 °C): 22.9 μm
Diameters dv(0.9) ([5]; 25 °C): 41.1 μm
Diameters dv(0.1) [6, 9]: 2.50 μm
Diameters dv(0.5) [6, 9]: 5.60 μm
Diameters dv(0.9) [6, 9]: 11.24 μm
Diameters dv(0.1) [6, 10]: 2.18 μm
Diameters dv(0.5) [6, 10]: 5.13 μm
Diameters dv(0.9) [6, 10]: 11.26 μm
Diameters dv(0.1) [6, 11]: 2.50 μm
Diameters dv(0.5) [6, 11]: 7.01 μm
Diameters dv(0.9) [6, 11]: 30.56 μm
Diameters dv(0.1) [6, 12]: 2.65 μm
Diameters dv(0.5) [6, 12]: 8.97 μm
Diameters dv(0.9) [6, 12]: 38.61 μm
Diameters dv(0.1) [6, 13]: 2.57 μm
Diameters dv(0.5) [6, 13]: 17.26 μm
Diameters dv(0.9) [6, 13]: 46.28 μm
Diameters dv(0.1) [6, 14]: 2.67 μm
Diameters dv(0.5) [6, 14]: 8.16 μm
Diameters dv(0.9) [6, 14]: 25.64 μm
Diameters dv(0.1) [6, 15]: 2.31 μm
Diameters dv(0.5) [6, 15]: 6.44 μm
Diameters dv(0.9) [6, 15]: 19.35 μm
Diameters dv(0.1) [6, 16]: 2.92 μm
Diameters dv(0.5) [6, 16]: 11.55 μm
Diameters dv(0.9) [6, 16]: 32.03 μm
Diameters dv(0.1) [6, 17]: 2.02 μm
Diameters dv(0.5) [6, 17]: 4.43 μm
Diameters dv(0.9) [6, 17]: 9.05 μm
Diameters dv(0.1) [7]: 13.0 μm
Diameters dv(0.5) [7]: 24.8 μm
Diameters dv(0.9) [7]: 43.7 μm
Diameters dv(0.1) ([8]; Filtration and freeze-drying): 1.70 μm
Diameters dv(0.5) ([8]; Filtration and freeze-drying): 2.80 μm
Diameters dv(0.9) ([8]; Filtration and freeze-drying): 4.71 μm
Diameters dv(0.1) ([8]; Filtration, no further drying): 1.81 μm
Diameters dv(0.5) ([8]; Filtration, no further drying): 2.88 μm
Diameters dv(0.9) ([8]; Filtration, no further drying): 4.64 μm
